Experimental data taken from PubChem BioAssay AID1347076 (National Center for Advancing Translational Sciences (NCATS), 2019).
The whole screen tested about 400,000 compounds, of which about 13,000 (3.2%) were called active. This list was built around the results that the source calls inconclusive (neither active nor inactive); the mix of calls is not that of the screen. Calls come from the whole dose curve; as a rule, active = well fitted cell-killing curve with a large enough effect; inconclusive = small, poorly fitted or top-dose-only effect, or effect the other way; inactive = flat fitted curve, though single readings scatter. A potency beside an inconclusive call is a rough fit, not a confirmed value.
% is set by controls: 0 for no effect and ±100 for the full control effect; potency is the fitted concentration of half-maximal effect.

Assay: qHTS assay for MDR1-selective chemotherapeutics: Primary screen using the drug-selected MDR subline cells KB-V1; note: nearly all actives have a fitted effect of over 60% in size
Settings: KB-V1 MDR cells viability, CellTiter-Glo, 72 h; activity change, negative = cytotoxicity: at 46.1 µM (top of the series)
Outline: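 Cytotoxicity via CellTiter-Glo luminescence after 72 h compound exposure at 37 degrees C. Cells: drug-selected KB-V1 line, DMEM phenol-red free plus 10% FBS. Compounds tested at multiple concentrations; normalized data fitted to concentration-effect curves.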
For Clc1ccc(-c2nc3ccc(Cl)cn3c2CN2CCOCC2)cc1, the “activity change, negative = cytotoxicity” value was inactive: -27.5%. In the case of CCN1CCC2(CCNC2)C1 (stereo not given), the “activity change, negative = cytotoxicity” value is reported as inactive: -2.02%. In the case of COC(=O)C1=C(c2cccc(Cl)c2)C[C@@H]2CC[C@H]1N2C(=O)N1CCCC1, the “activity change, negative = cytotoxicity” value is reported as inactive: -1.2%. With O=C(c1ccc(Cl)cc1)C1CCCN(Cc2cccc3ncccc23)C1 (stereo not given) the Potency was inconclusive: 2.06 µM [cytotoxic, full curve, poor fit]. For O=C(CNC(=O)c1ccc(Cl)cc1)Nc1ccc(Br)cc1C(=O)c1ccccc1, the Potency was inconclusive: 20.6 µM [cytotoxic, partial curve]. In the case of O=C(Nc1ccc(C(F)(F)F)cc1)c1cccn(Cc2ccc3c(c2)OC(F)(F)O3)c1=O, the Potency is reported as active: 2.91 µM. With c1ccc(C[n+]2ccccc2)cc1 the “activity change, negative = cytotoxicity” value was inactive: -21.5%. In the case of COC(=O)c1c2[n+](cc3cc(OC)c(OC)cc13)CCc1cc(OC)c(OC)cc1-2, the Potency is reported as inconclusive: 29.1 µM [rising, partial curve, poor fit]. In the case of Cc1cc(NC(=O)COC(=O)c2c(C)nn(Cc3ccccc3)c2C)no1, the Potency is reported as inconclusive: 8.2 µM [cytotoxic, partial curve]. With CC1(C)NC(=S)C(C)(C)N1N=O the Potency was inconclusive: 29.1 µM [rising, single point]. In the case of CNC(=O)c1cccn(Cc2cc(C(F)(F)F)cc(C(F)(F)F)c2)c1=O, the Potency is reported as inconclusive: 0.461 µM [cytotoxic, partial curve, poor fit]. For Cc1cccc(Cn2cccc(C(=O)Nc3ccc(F)cc3F)c2=O)c1, the Potency was inconclusive: 0.0411 µM [rising, full curve]. With CCCCCn1c(=O)c(C(=O)Nc2cc(C)ccn2)c(O)c2ccccc21 the Potency was inconclusive: 13 µM [cytotoxic, partial curve, poor fit]. In the case of O=C(/C=C/c1ccc(Br)cc1)NC(=S)N1C[C@H]2C[C@H](C1)c1cccc(=O)n1C2, the Potency is reported as inconclusive: 29.1 µM [rising, single point]. In the case of CC1=CC(=C2C(=O)NC(=S)NC2=O)C=C(C(F)(F)F)N1Cc1ccccc1, the Potency is reported as active: 11.6 µM. With CCCCCn1c(=O)c(C(=O)Nc2nc(CC(=O)OCC)cs2)c(O)c2ccccc21 the Potency was active: 6.51 µM. For CNC(=O)O/N=C(\N)Cc1csc2ccc(Cl)cc12, the Potency was inconclusive: 29.1 µM [cytotoxic, single point]. For Cc1ccc(-n2c(-c3cccs3)nc3ccccc3c2=O)cc1, the Potency was active: 23.1 µM. For Cc1cccc(C)c1-n1nnnc1C(c1ccnc2ccccc12)N1CCC2(CC1)C(=O)NCN2c1ccccc1 (stereo not given), the Potency was inconclusive: 23.1 µM [cytotoxic, single point]. For CCC1C(c2cc(OC)c(OC)c(OC)c2)c2cc3c(cc2OC1N1CCCC1)OCO3 (stereo not given), the Potency was active: 5.17 µM. In the case of COc1cc(CC2C(=O)N(C)C(=O)N(C)C2=O)ccc1OCc1ccccc1, the Potency is reported as inconclusive: 29.1 µM [cytotoxic, single point]. For CN1CC[C@@]2(C)c3cc(O)ccc3N(C)C12 (stereo not given in full), the Potency was inconclusive: 20.6 µM [rising, single point]. For O=C(c1ccc(F)cc1)C(Cc1ccccc1)N1CCCCC1 (stereo not given), the “activity change, negative = cytotoxicity” value was inactive: 7.08%. For CN1CCN(c2cc(N3CCCCCC3)c(F)cc2[N+](=O)[O-])CC1, the Potency was inconclusive: 5.8 µM [cytotoxic, full curve]. In the case of O=C(CN1CC=C(c2ccccc2)CC1)NC(=O)NC1CCCCC1, the “activity change, negative = cytotoxicity” value is reported as inactive: -9.86%. With CC(=O)Nc1ccccc1C(=O)OCc1cccc(F)c1 the “activity change, negative = cytotoxicity” value was inactive: -19.6%. For Cc1ccc(/C=C2\C(=O)NC(=S)N(c3ccc(F)cc3)C2=O)s1, the Potency was inconclusive: 29.1 µM [cytotoxic, single point]. In the case of COc1ccc(OC(=O)N(C)C[C@@H]2OCc3ccccc3-c3c(n(C)c4ccccc34)C(=O)N([C@H](C)CO)C[C@@H]2C)cc1, the “activity change, negative = cytotoxicity” value is reported as inactive: -3.3%. In the case of CCCCCCC(=O)c1c(O)n(-c2ccccc2OC)c(=O)[nH]c1=O (tested in a mixture with another compound), the Potency is reported as inconclusive: 18.4 µM [cytotoxic, single point]. For Cc1nn(Cc2ccccc2Cl)c(C)c1C(=O)OCC(=O)NC1CCCC(C)C1C (stereo not given), the Potency was inconclusive: 8.2 µM [cytotoxic, partial curve]. In the case of COC(=O)c1ccc(COc2cc(C)cc3oc(=O)c4c(c23)CCCC4)o1, the Potency is reported as inconclusive: 2.59 µM [cytotoxic, full curve]. In the case of N#Cc1cc2c(nc1SCC(=O)Nc1ccc(Cl)cc1)C1CCN2CC1, the Potency is reported as active: 2.91 µM. For CCOC(=O)C(O)(c1ccc(N(CC)S(=O)(=O)c2ccc(C)cc2)cc1)C(F)(F)F (stereo not given), the Potency was active: 18.4 µM. For O=[N+]([O-])c1cc(C(F)(F)F)c(Cl)c([N+](=O)[O-])c1Nc1ncc(C(F)(F)F)cc1Cl, the Potency was inconclusive: 1.3 µM [cytotoxic, partial curve, poor fit]. With c1ccc2c(c1)[I+]c1ccccc1-2 the Potency was active: 16.4 µM. In the case of CC12CCC(O)CC1CCC1C2CCC2(C)C(C(=O)CC(O)C(F)(F)F)CCC12 (stereo not given), the Potency is reported as active: 23.1 µM. For O=C1Nc2cc(C(=O)N3CCC4(CC3)OCCO4)ccc2S/C1=C\c1ccccc1, the Potency was inconclusive: 29.1 µM [cytotoxic, single point]. For c1cncc(CNC2CCCCC2)c1, the Potency was inconclusive: 29.1 µM [rising, single point]. In the case of COc1ccc(C=C2C(=O)N(C)C(=O)N(C)C2=O)cc1COc1ccc(NC(C)=O)cc1, the “activity change, negative = cytotoxicity” value is reported as inactive: 20.6%. For COP(=O)(C#Cc1ccccc1)C(O)c1ccc(Br)cc1 (stereo not given), the Potency was inconclusive: 23.1 µM [rising, single point]. In the case of O=[N+]([O-])c1ccc(N2CCOCC2)c2c1no[n+]2[O-], the Potency is reported as active: 5.17 µM. In the case of CCCCCCN=C(C)c1c(O)n(Cc2ccccc2)c(=O)[nH]c1=O, the Potency is reported as inconclusive: 20.6 µM [cytotoxic, single point]. For CCN1CC2(COC(=O)c3ccccc3N)CCC(OC)C34C5CC6C(OC)CC(O)(C5C6OC)C(O)(C(OC)C23)C14 (stereo not given), the Potency was inconclusive: 9.2 µM [cytotoxic, partial curve, poor fit]. With COc1cccc(CN2CCN(C(=O)COc3ccc4ccccc4c3)CC2)c1 the Potency was inconclusive: 25.9 µM [cytotoxic, single point]. With O=C(NC1CCCCC1)N1Cc2cc(N3CCOCC3)ccc2-n2nncc2C1 the “activity change, negative = cytotoxicity” value was inactive: -1.91%. For CN1CCCN(C(=O)COc2ccc(F)cc2Cl)CC1, the “activity change, negative = cytotoxicity” value was inactive: -11.1%. With COc1ccc(C2=NCc3nnc(C)n3-c3ccc(Cl)cc32)cc1Cl the Potency was inconclusive: 23.1 µM [cytotoxic, single point]. With CNc1ccc2oc(C[C@H]3O[C@@]4(CC[C@H]3C)O[C@H]([C@H](C)C(=O)c3ccc[nH]3)[C@H](C)C[C@H]4C)nc2c1C(=O)O the Potency was active: 3.66 µM. For CCOC(=O)Cc1csc(NC(=O)c2c(O)c3ccccc3n(CCC(C)C)c2=O)n1, the Potency was active: 8.2 µM. With CCC(=O)c1c(O)n(C2CCCCCC2)c(=O)[nH]c1=O the Potency was inconclusive: 32.6 µM [cytotoxic, single point]. For O=C1NC(=O)N(c2ccc3c(c2)OCO3)C(=O)/C1=C/c1cccs1, the “activity change, negative = cytotoxicity” value was inactive: -15.2%. For Cc1ccc(C[n+]2c(-c3ccc(C)cc3)cc(-c3ccc(C)cc3)cc2-c2ccc(C)cc2)cc1, the Potency was inconclusive: 29.1 µM [cytotoxic, single point]. For COc1ccc(OCC(=O)N2CCN(Cc3ccc(SC)cc3)CC2)cc1, the “activity change, negative = cytotoxicity” value was inactive: -31%. In the case of CCOC(=O)c1c(-n2c(C)cc(/C=C3\C(=O)NC(=O)N(C)C3=O)c2C)sc2c1CCCC2, the Potency is reported as active: 23.1 µM. For CCc1cccc(CC)c1N(COC)C(=O)CCl, the Potency was inconclusive: 9.2 µM [cytotoxic, partial curve]. In the case of CCCCn1c(O)c(C=NC2CC3CCC2(C)C3(C)C)c(=O)[nH]c1=O (stereo not given), the Potency is reported as inconclusive: 25.9 µM [cytotoxic, single point]. With COc1ccc(N=Nc2c(O)[nH]c(=S)[nH]c2=O)cc1 the Potency was inconclusive: 16.4 µM [cytotoxic, single point]. For CC1c2ccccc2-n2nncc2CN1C (stereo not given), the “activity change, negative = cytotoxicity” value was inactive: 0.0002%. For CC1(C)Cc2c(sc3c2C(=O)NC(c2cccnc2)N3)CO1 (stereo not given), the Potency was inconclusive: 13 µM [cytotoxic, partial curve, poor fit]. For Cc1ccc(C(=O)Nc2ccccc2)cc1S(=O)(=O)N1CCCC1, the Potency was active: 14.6 µM. In the case of CCCCCCn1c(=O)c(C(=O)Nc2ncccc2C)c(O)c2ccccc21, the Potency is reported as inconclusive: 2.06 µM [cytotoxic, full curve]. For CS(=O)(=O)c1ccc(C2=C(CNC(=O)c3nccs3)[C@H]3CC[C@@H](C2)N3Cc2ccco2)cc1, the “activity change, negative = cytotoxicity” value was inactive: -14.2%. With Cc1nn(Cc2ccccc2)c(Cl)c1C(=O)OCC(=O)Nc1cccc2ccccc12 the Potency was active: 16.4 µM. In the case of O=C(Cc1ccccc1)N1CCN(CC2CC=CCC2)CC1 (stereo not given), the Potency is reported as inconclusive: 20.6 µM [cytotoxic, single point]. With COC(=O)C1=C(c2ccc(Cl)c(C(F)(F)F)c2)C[C@@H]2CC[C@H]1N2C(=O)NCCNC(C)=O the Potency was inconclusive: 29.1 µM [rising, single point]. In the case of CCC1(c2ccc(N)cc2)CCC(=O)NC1=O (stereo not given), the “activity change, negative = cytotoxicity” value is reported as inactive: 5.42%. In the case of Cc1ccccc1-n1c(/C=C/c2ccccn2)nc2ccccc2c1=O, the Potency is reported as inconclusive: 29.1 µM [cytotoxic, single point]. With CCN(CC)CCN=C(C)c1c(O)n(-c2ccccc2OC)c(=O)[nH]c1=O the Potency was inconclusive: 20.6 µM [rising, partial curve, poor fit]. In the case of CCOC(=O)[C@]12Cc3ccccc3[C@H]1N(CCC(=O)OC)C(=O)c1ccccc12, the Potency is reported as active: 5.17 µM. With C[C@]12CCC3C(CC[C@H]4C[C@@H](O)CC[C@]34C)[C@H]1C=CC2=O (stereo not given in full) the Potency was inconclusive: 29.1 µM [cytotoxic, single point].
